According to the supplement of paper PMC9454738:
Where a name gives a salt, the structure may show the parent alone. The list shows a part of the results. Single values are uncertain here, since repeats match poorly.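 Test systems: triple-negative MDA-MB-231 breast cancer cells and their brain-metastatic MDA-MB-231BRM derivative, each stably carrying empty vector, full-length GLI1 or truncated tGLI1. Viability after 48 h was read by CellTiter-Blue and expressed against 1% DMSO vehicle. A compound was tGLI1-selective if it lowered viability 20% more in tGLI1 cells than in vector and GLI1 cells.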

Tests used:
Experiment in all cases: cell viability relative to vehicle (DMSO) control (fraction); higher = more viable cells (less growth inhibition)
Conditions in all cases: treatment time 48 h
MDA-MB-231 GLI1 = tested on: MDA-MB-231 GLI1
MDA-MB-231 Vector = tested on: MDA-MB-231 Vector
MDA-MB-231 tGLI1 = tested on: MDA-MB-231 tGLI1
MDA-MB-231BRM GLI1 = tested on: MDA-MB-231BRM GLI1
MDA-MB-231BRM Vector = tested on: MDA-MB-231BRM Vector
MDA-MB-231BRM tGLI1 = tested on: MDA-MB-231BRM tGLI1

| SMILES | cell viability (MDA-MB-231 GLI1; 0.05 µM) | cell viability (MDA-MB-231 GLI1; 0.5 µM) | cell viability (MDA-MB-231 GLI1; 5 µM) | cell viability (MDA-MB-231 Vector; 0.05 µM) | cell viability (MDA-MB-231 Vector; 0.5 µM) | cell viability (MDA-MB-231 Vector; 5 µM) | cell viability (MDA-MB-231 tGLI1; 0.05 µM) | cell viability (MDA-MB-231 tGLI1; 0.5 µM) | cell viability (MDA-MB-231 tGLI1; 5 µM) | cell viability (MDA-MB-231BRM GLI1; 0.05 µM) | cell viability (MDA-MB-231BRM GLI1; 0.5 µM) | cell viability (MDA-MB-231BRM GLI1; 5 µM) | cell viability (MDA-MB-231BRM Vector; 0.05 µM) | cell viability (MDA-MB-231BRM Vector; 0.5 µM) | cell viability (MDA-MB-231BRM Vector; 5 µM) | cell viability (MDA-MB-231BRM tGLI1; 0.05 µM) | cell viability (MDA-MB-231BRM tGLI1; 0.5 µM) | cell viability (MDA-MB-231BRM tGLI1; 5 µM) |
| --- | --- | --- | --- | --- | --- | --- | --- | --- | --- | --- | --- | --- | --- | --- | --- | --- | --- | --- |
| N#Cc1ccc(C(c2ccc(C#N)cc2)n2cncn2)cc1 [Letrozole] | 1.27 | 1.11 | 1.14 | 1.3 | 1.11 | 1.15 | 0.885 | 1.1 | 0.931 | 1.06 | 1.04 | 0.971 | 1.08 | 1 | 1.03 | 1.05 | 1.06 | 1.06 |
| COc1ccc(-c2ccc3ncc4c(c3c2)n(-c2ccc(N3CCNCC3)c(C(F)(F)F)c2)c(=O)n4C)cn1 | 0.221 | 0.133 | -0.195 | 0.364 | 0.29 | -0.19 | 0.316 | 0.187 | -0.168 | 0.953 | 0.842 | 0.375 | 1.03 | 1.07 | 0.338 | 0.953 | 1.01 | 0.372 |
| NC1(Cc2ccc(Cl)cc2)CCN(c2ncnc3[nH]ccc23)CC1 | 1.34 | 1.36 | 1.01 | 1.32 | 1.49 | 1.07 | 1.43 | 1.21 | 0.978 | 1.04 | 1.03 | 0.982 | 1.08 | 1.05 | 0.931 | 1.06 | 1.05 | 0.901 |
| CCN1CCN(Cc2ccc(C(=O)Nc3ccc(C)c(Oc4ccc5c(c4)CC(=O)N5)c3)cc2C(F)(F)F)CC1 | 2.22 | 2.93 | 1.43 | 1.26 | 1.21 | 0.583 | 1.39 | 1.52 | 0.778 | 0.81 | 0.806 | 0.576 | 0.919 | 0.87 | 0.684 | 1.14 | 1.09 | 1.04 |
| CN1CCN(c2ccc3nc(-c4c(N)c5c(F)cccc5[nH]c4=O)[nH]c3c2)CC1 [Dovitinib (TKI-258) Dilactic Acid] | 1.1 | 1.02 | 0.0644 | 1.32 | 1.2 | 0.0403 | 1.33 | 1.02 | -0.0709 | 0.921 | 0.795 | 0.44 | 0.901 | 0.837 | 0.429 | 0.934 | 0.845 | 0.455 |
| NCC(=O)Nc1ccc(-n2nc(C(F)(F)F)cc2-c2ccc3c(ccc4ccccc43)c2)cc1 | 0.839 | 0.765 | -0.0771 | 0.933 | 0.643 | 0.023 | 0.93 | 0.683 | -0.0266 | 0.968 | 1 | 0.936 | 0.967 | 1.06 | 0.888 | 0.964 | 1.1 | 0.784 |
| COc1cc2ncnc(Nc3ccc(Cl)cc3F)c2cc1OC | 1.07 | 1.45 | 1.2 | 0.896 | 1.35 | 1.3 | 0.866 | 1.34 | 1.14 | 0.933 | 0.93 | 0.938 | 1.01 | 1.03 | 0.964 | 0.999 | 0.944 | 0.929 |
| CO[C@H]1C[C@@H]2CC[C@@H](C)[C@@](O)(O2)C(=O)C(=O)N2CCCC[C@H]2C(=O)O[C@H]([C@H](C)C[C@@H]2CC[C@H](n3cnnn3)[C@H](OC)C2)CC(=O)[C@H](C)/C=C(\C)[C@@H](O)[C@@H](OC)C(=O)[C@H](C)C[C@H](C)/C=C/C=C/C=C/1C [Zotarolimus(ABT-578)] | 0.853 | 1.04 | 0.625 | 0.836 | 0.974 | 0.95 | 0.886 | 0.938 | 0.694 | 1.05 | 0.901 | 0.759 | 1.06 | 0.946 | 0.754 | 0.978 | 0.883 | 0.69 |
| COc1cccc(-n2c(=O)[nH]c3cc(Cl)n(-c4ccc(-c5cccc(OC)c5O)cc4)c3c2=O)c1 | 2.15 | 3.02 | 1.63 | 1.42 | 1.26 | 1.1 | 1.24 | 1.5 | 1.17 | 0.902 | 0.741 | 0.615 | 0.876 | 0.723 | 0.629 | 1.24 | 0.989 | 0.907 |
| Nc1nc(N)c2nc(-c3cccc(O)c3)c(-c3cccc(O)c3)nc2n1 | 1.28 | 1.31 | 0.415 | 1.84 | 1.3 | 0.989 | 1.13 | 1.17 | 1.1 | 0.531 | 1.04 | 0.438 | 0.59 | 1.04 | 0.619 | 1.02 | 1.05 | 0.975 |
| O=C(Nc1cccc(Nc2ncc(Br)c(NCCc3cnc[nH]3)n2)c1)N1CCCC1 | 1.24 | 1.24 | 0.842 | 1.7 | 1.15 | 0.811 | 1.25 | 1.1 | 0.783 | 1.19 | 1.02 | 0.851 | 1.18 | 1.02 | 0.82 | 0.992 | 1.06 | 0.714 |
| CS(=O)(=O)N1CCc2c(-c3cnc(N)nc3)nc(N3CCOCC3)nc21 | 1.07 | 1.04 | 0.3 | 1.11 | 1.08 | 0.449 | 1.22 | 0.938 | 0.29 | 0.968 | 0.963 | 0.867 | 1.03 | 1.02 | 0.801 | 1.04 | 1.02 | 0.644 |
| CN(C)/N=N/c1[nH]cnc1C(N)=O [Dacarbazine (DTIC-Dome)] | 1.31 | 1.04 | 0.974 | 0.836 | 1.19 | 1.11 | 1.08 | 1.06 | 0.982 | 1.05 | 1.05 | 0.955 | 1.02 | 0.995 | 0.985 | 0.988 | 0.999 | 1.02 |
| COCCOc1ccc2c(c1)ncn2-c1ccc2cccc(N3CCC(N)CC3)c2n1 | 1.34 | 1.28 | 0.298 | 1.93 | 1.25 | 0.263 | 0.597 | 1.19 | 0.238 | 1.29 | 1.16 | 0.912 | 1.18 | 1.12 | 1.04 | 0.626 | 1.17 | 0.843 |
| CCN(CC)CCCCNc1ncc2cc(-c3cc(OC)cc(OC)c3)c(NC(=O)NC(C)(C)C)nc2n1 | 1.28 | 0.782 | 0.638 | 1.87 | 1.27 | 1.07 | 0.672 | 1.28 | 1.03 | 1.19 | 1.11 | 0.735 | 0.589 | 0.987 | 0.682 | 1.03 | 0.973 | 0.607 |
| O=C(NCCO)c1cccc(-c2cc(Nc3ccc(OC(F)(F)F)cc3)ncn2)c1 | 2.15 | 3.11 | 2.01 | 1.26 | 1.39 | 1.43 | 1.35 | 1.49 | 1.57 | 0.885 | 0.795 | 0.709 | 0.861 | 0.833 | 0.731 | 1.24 | 1.17 | 0.953 |
| COc1cc(Nc2ncc3c(n2)-c2ccc(Cl)cc2C(c2c(F)cccc2OC)=NC3)ccc1C(=O)O [Alisertib (MLN8237)] | 0.918 | 1.19 | 0.819 | 0.996 | 0.88 | 0.691 | 0.773 | 0.995 | 0.458 | 0.994 | 0.975 | 0.851 | 1.01 | 0.931 | 0.921 | 1.02 | 0.956 | 0.878 |
| CC(C)N(CCC(=O)c1ccc2ccccc2c1)Cc1ccccc1 | 2.49 | 3.17 | 1.81 | 1.37 | 1.29 | 1.03 | 1.42 | 1.55 | 1.1 | 0.905 | 0.805 | 0.813 | 0.924 | 0.832 | 0.92 | 1.14 | 1.06 | 1.12 |
| O=C(CCCCCCC(=O)Nc1ccccc1)NO [Vorinostat (SAHA)] | 1.33 | 1.09 | 0.13 | 0.855 | 1.4 | -0.337 | 1.13 | 1.05 | 0.0834 | 0.961 | 0.95 | 0.83 | 1.06 | 0.95 | 0.953 | 1.03 | 0.995 | 0.873 |
| Nc1cc(C(F)(F)F)c(-c2cc(N3CCOCC3)nc(N3CCOCC3)n2)cn1 [BKM120 (NVP-BKM120, Buparlisib)] | 0.871 | 0.671 | 0.0322 | 1 | 1.05 | 0.121 | 1.14 | 0.755 | 0.128 | 0.988 | 1.1 | 0.96 | 1.04 | 1.08 | 0.928 | 0.967 | 0.986 | 0.889 |
| C#Cc1cccc(Nc2ncnc3cc(OCCOC)c(OCCOC)cc23)c1 [Erlotinib HCl (OSI-744)] | 1.37 | 1.72 | 1.75 | 1.42 | 1.24 | 1.12 | 1.09 | 1.36 | 1.21 | 0.901 | 0.927 | 0.851 | 0.828 | 0.921 | 0.921 | 0.907 | 0.941 | 0.898 |
| CS(=O)(=O)N1CCN(Cc2cc3nc(-c4cccc5[nH]ncc45)nc(N4CCOCC4)c3s2)CC1 | 0.999 | 1.27 | 0.277 | 0.784 | 0.774 | 0.301 | 0.739 | 0.923 | 0.434 | 0.889 | 0.796 | 0.687 | 0.842 | 0.798 | 0.524 | 0.982 | 0.799 | 0.472 |
| O=C(NOC[C@H](O)CO)c1ccc(F)c(F)c1Nc1ccc(I)cc1F | 1.12 | 1.15 | 0.772 | 1.11 | 0.644 | 0.437 | 1.01 | 0.999 | 0.532 | 0.979 | 0.972 | 1.02 | 0.923 | 1.01 | 1.04 | 0.962 | 1 | 0.953 |
| CNC(=O)c1cc(Oc2ccc(NC(=O)Nc3cc(C(C)(C)C)nn3-c3ccc4ncccc4c3)c(F)c2)ccn1 [DCC-2036 (Rebastinib)] | 1.29 | 1.08 | 0.0137 | 1.23 | 1.11 | 0.118 | 1.36 | 0.968 | 0.0451 | 1.07 | 1.15 | 0.895 | 1.06 | 1.1 | 0.882 | 1.08 | 1.18 | 0.854 |
| O=C(/C=C/c1ccc2ccccc2n1)c1ccncc1 | 1.46 | 1.5 | -0.0565 | 1.49 | 1.31 | 0.0391 | 1.26 | 1.36 | -0.0327 | 1.12 | 0.996 | 0.806 | 1.22 | 1.12 | 0.866 | 0.968 | 1.01 | 0.809 |
| Cc1[nH]c(/C=C2\C(=O)Nc3ccccc32)c(C)c1CCC(=O)O [TSU-68 (SU6668, Orantinib)] | 1.36 | 1.4 | 1.47 | 1.88 | 1.27 | 1.4 | 1.11 | 1.26 | 1.22 | 1.11 | 1.11 | 0.906 | 1.17 | 1.05 | 0.92 | 0.963 | 1.1 | 0.941 |
| Cn1nnc2c(C(N)=O)ncn2c1=O [Methazolastone] | 1.17 | 1.04 | 1.03 | 1.08 | 1 | 1.06 | 0.965 | 1.03 | 1.04 | 0.968 | 1.04 | 1.04 | 1.02 | 1.01 | 1.12 | 1.01 | 1.03 | 1.1 |

A few values from the entries so far:
Value for C#Cc1cccc(Nc2ncnc3cc(OCCOC)c(OCCOC)cc23)c1 [Erlotinib HCl (OSI-744)] under cell viability (MDA-MB-231 Vector; 0.5 µM): 1.24
Value for COCCOc1ccc2c(c1)ncn2-c1ccc2cccc(N3CCC(N)CC3)c2n1 under cell viability (MDA-MB-231BRM Vector; 0.05 µM): 1.18
